Experimental data: the supplement of paper PMC10849652
The other results are listed elsewhere or left out.

Sequences of proteins named here, by UniProt entry; tags and fusion partners are left off. A change or cut given only in a name is not applied to a line headed by its entry.
UniProt P53778: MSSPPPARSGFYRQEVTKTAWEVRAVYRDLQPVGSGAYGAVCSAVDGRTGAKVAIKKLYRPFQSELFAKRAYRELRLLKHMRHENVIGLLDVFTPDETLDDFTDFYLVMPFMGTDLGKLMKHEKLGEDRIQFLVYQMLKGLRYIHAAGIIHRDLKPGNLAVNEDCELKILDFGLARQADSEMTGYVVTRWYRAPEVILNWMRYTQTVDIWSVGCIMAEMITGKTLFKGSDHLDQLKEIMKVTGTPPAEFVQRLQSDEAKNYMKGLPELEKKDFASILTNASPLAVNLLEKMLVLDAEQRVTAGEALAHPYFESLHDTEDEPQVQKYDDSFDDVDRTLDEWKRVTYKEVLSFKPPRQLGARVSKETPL
UniProt Q9Y4F3: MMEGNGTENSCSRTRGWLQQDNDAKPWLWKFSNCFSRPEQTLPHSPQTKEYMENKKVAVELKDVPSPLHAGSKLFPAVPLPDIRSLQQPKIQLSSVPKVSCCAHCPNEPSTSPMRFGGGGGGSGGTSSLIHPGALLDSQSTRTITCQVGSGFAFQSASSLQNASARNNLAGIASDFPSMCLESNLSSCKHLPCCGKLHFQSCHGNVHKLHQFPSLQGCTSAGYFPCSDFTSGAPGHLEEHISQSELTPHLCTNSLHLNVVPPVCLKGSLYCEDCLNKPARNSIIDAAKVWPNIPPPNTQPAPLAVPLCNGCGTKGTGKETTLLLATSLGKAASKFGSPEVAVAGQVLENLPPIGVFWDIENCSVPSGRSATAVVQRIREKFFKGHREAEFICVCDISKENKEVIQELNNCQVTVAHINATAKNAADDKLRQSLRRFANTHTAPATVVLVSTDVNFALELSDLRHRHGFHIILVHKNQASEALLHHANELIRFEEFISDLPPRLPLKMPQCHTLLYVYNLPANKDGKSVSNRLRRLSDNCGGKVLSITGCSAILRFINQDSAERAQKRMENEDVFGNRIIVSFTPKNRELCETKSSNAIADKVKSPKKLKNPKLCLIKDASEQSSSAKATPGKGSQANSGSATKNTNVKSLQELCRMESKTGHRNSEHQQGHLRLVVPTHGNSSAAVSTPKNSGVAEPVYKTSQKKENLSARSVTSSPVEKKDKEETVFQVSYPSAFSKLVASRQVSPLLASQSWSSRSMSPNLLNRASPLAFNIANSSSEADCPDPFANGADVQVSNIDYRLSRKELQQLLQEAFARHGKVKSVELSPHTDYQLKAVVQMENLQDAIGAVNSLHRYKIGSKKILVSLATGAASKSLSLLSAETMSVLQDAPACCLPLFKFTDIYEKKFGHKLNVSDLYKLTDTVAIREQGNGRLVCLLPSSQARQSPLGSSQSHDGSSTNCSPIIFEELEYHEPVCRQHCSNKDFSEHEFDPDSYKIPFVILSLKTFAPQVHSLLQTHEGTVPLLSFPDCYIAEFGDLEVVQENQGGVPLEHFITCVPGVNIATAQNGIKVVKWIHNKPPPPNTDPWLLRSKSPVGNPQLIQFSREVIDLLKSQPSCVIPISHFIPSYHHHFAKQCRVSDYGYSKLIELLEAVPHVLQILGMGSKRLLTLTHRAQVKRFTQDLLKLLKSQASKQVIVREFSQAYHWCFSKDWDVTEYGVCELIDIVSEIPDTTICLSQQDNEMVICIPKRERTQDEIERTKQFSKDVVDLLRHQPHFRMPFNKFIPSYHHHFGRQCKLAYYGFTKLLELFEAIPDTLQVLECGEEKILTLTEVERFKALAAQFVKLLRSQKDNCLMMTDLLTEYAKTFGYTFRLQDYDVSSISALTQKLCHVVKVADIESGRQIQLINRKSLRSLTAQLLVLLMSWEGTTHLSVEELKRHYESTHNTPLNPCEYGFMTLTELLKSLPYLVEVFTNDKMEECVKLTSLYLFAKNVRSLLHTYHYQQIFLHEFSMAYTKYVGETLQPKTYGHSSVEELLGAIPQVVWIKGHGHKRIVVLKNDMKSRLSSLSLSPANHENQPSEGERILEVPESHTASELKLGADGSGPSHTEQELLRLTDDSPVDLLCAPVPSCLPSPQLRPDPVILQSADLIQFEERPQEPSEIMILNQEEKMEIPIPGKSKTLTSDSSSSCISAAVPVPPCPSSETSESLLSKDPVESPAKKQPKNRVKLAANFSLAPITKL
UniProt Q92585: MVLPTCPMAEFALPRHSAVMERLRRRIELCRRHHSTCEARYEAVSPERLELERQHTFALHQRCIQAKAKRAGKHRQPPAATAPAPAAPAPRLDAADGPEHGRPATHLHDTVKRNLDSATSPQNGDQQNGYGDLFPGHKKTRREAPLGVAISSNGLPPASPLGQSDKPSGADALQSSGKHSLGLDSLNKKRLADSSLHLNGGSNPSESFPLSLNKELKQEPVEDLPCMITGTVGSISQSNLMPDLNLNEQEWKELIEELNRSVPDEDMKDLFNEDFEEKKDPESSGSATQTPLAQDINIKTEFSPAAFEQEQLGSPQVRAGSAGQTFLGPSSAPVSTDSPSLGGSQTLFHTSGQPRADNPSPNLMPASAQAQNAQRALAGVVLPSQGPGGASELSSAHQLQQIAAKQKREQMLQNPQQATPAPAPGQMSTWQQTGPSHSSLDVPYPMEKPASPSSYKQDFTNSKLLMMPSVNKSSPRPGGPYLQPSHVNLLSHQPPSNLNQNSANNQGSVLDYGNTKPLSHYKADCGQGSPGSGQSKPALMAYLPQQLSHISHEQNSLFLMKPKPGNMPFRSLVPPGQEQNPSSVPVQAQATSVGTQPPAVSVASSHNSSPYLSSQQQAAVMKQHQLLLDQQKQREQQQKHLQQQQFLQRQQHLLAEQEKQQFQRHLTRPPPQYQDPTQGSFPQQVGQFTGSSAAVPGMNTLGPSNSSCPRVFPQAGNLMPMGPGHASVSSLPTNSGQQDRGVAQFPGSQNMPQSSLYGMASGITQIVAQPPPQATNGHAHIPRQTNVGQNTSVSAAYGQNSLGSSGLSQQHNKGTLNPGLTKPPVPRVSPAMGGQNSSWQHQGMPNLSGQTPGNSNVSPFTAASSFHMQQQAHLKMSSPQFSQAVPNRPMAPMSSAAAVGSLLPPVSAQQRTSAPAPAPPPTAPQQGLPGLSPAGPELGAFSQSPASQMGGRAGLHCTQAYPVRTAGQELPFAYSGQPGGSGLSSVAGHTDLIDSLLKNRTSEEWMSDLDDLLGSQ
UniProt P12980: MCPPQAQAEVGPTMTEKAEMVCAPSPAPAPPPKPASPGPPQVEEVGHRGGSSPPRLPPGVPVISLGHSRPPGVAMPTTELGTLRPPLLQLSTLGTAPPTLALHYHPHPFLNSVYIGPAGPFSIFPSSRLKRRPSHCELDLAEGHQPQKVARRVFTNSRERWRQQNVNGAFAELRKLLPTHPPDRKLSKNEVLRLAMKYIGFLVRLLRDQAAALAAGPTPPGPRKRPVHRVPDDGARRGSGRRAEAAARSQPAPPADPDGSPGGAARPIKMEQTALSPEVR
UniProt P41279, whole entry, looked up: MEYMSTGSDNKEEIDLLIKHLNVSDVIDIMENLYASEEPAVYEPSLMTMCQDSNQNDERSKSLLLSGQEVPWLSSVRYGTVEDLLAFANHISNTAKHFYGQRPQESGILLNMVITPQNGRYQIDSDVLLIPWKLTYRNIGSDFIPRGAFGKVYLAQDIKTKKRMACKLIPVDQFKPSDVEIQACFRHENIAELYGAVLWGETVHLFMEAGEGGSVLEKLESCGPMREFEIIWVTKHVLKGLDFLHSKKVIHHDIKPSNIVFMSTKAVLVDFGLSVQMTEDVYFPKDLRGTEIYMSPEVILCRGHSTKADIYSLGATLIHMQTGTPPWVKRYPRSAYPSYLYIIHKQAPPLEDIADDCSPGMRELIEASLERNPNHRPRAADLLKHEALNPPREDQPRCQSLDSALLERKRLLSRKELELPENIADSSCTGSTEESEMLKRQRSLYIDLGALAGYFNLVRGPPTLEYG
UniProt Q8WV07: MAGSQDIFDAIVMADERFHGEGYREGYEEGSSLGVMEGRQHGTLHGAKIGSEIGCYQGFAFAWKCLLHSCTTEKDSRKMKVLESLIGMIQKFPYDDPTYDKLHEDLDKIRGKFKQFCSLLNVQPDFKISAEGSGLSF
UniProt P07948: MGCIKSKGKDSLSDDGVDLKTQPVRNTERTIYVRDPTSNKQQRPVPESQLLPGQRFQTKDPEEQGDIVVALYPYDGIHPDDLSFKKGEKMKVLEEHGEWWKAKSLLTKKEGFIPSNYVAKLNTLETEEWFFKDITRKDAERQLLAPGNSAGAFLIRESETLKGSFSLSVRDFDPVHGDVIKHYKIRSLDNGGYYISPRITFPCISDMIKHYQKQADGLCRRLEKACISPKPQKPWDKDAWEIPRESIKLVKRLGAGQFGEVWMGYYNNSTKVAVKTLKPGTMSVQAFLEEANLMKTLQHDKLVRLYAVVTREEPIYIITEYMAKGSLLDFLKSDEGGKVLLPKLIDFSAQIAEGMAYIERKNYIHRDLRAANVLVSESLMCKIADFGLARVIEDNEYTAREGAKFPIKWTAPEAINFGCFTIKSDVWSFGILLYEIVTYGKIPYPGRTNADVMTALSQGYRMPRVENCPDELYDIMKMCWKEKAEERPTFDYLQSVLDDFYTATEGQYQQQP
UniProt O43325: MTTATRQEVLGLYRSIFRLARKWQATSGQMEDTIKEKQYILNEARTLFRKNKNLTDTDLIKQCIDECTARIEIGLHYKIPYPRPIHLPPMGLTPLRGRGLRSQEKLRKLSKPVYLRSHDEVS
UniProt Q13233: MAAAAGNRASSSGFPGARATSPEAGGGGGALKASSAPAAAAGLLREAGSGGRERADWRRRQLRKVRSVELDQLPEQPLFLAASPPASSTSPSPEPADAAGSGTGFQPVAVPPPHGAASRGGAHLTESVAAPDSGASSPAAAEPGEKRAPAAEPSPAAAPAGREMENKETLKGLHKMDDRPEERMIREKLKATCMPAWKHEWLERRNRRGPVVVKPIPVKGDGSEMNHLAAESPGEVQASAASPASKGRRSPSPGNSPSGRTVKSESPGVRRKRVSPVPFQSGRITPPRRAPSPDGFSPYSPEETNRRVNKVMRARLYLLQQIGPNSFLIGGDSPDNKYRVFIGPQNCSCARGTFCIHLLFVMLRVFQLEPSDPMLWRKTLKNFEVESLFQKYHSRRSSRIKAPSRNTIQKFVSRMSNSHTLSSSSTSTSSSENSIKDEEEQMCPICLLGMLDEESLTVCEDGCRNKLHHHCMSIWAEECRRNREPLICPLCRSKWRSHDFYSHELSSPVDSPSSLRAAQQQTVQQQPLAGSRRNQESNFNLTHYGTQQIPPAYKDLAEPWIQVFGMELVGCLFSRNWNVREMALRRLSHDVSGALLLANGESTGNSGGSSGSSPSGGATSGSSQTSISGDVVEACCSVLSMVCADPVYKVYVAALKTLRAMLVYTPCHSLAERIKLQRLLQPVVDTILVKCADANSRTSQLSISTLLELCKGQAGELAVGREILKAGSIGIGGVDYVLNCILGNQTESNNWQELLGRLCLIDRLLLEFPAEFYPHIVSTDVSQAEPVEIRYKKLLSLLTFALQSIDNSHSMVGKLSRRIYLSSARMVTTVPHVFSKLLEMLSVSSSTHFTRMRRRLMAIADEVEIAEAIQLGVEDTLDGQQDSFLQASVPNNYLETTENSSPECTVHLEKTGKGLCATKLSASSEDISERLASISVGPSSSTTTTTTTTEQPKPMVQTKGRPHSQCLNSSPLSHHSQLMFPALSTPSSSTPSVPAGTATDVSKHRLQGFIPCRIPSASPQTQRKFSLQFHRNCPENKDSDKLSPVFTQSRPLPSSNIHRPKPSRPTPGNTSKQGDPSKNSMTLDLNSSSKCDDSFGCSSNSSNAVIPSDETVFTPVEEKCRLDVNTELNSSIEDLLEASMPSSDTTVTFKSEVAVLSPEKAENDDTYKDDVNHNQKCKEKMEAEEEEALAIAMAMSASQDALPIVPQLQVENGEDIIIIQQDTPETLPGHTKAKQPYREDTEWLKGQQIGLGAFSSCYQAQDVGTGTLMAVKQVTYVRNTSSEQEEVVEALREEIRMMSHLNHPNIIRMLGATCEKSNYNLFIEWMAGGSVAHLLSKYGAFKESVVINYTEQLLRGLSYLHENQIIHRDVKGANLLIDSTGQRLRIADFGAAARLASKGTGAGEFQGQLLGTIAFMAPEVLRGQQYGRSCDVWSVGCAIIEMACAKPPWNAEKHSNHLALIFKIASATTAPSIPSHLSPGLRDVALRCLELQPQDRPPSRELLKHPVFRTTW
UniProt P43365, whole entry, looked up: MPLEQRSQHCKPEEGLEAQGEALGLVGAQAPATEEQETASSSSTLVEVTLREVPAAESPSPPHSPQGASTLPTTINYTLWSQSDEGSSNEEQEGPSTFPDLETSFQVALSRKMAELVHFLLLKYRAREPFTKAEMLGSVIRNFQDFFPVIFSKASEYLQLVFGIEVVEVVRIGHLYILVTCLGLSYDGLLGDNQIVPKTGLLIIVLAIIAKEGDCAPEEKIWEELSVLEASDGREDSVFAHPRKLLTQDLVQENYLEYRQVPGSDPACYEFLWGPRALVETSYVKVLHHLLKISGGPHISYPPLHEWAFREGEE
UniProt Q14210: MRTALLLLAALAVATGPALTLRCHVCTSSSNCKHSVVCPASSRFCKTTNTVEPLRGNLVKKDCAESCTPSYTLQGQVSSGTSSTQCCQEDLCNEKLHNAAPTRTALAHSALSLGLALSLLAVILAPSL

compound: CS(=O)(=O)N1CCN(Cc2cc3nc(-c4cccc5[nH]ncc45)nc(N4CCOCC4)c3s2)CC1 [pictilisib]; experiment: log2 fold change, soluble protein after heating vs DMSO (PISA); higher = thermal stabilisation; K562 lysate, 10 uM; active = over 0.2 and 3.5 SD of the protein, either way, in both replicates (recomputed)
How it was run: (§1)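 Following dounce homogenisation of K562 pellets in PBS pH 7.4 with 1 mM MgCl2, crude extract at 1 mg/mL protein was incubated for 30 min with 10 μM compound. Aliquots were then heated for 3 min over 48°C-58°C and pooled, NP-40 was added to 0.5% at 4°C, and soluble protein was recovered as the supernatant at 21,000xg for 90 min. Channel-sum-equalised TMTpro 16plex LC-MS/MS quantified this protein. Each value, from duplicates, is a log-two fold change in thermal stability relative to solvent controls.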

Row | Target | log2 fold change
1 | MAPK12 (UniProt P53778) | inactive: 0.059
2 | MARF1 (UniProt Q9Y4F3) | inactive: -0.212
3 | MAML1 (UniProt Q92585) | inactive: 0.161
4 | MACF1, A0A0A6YYJ5 | inactive: 0.013
5 | MARVELD1 (UniProt Q9BSK0) | inactive: 0.025
6 | LYL1 (UniProt P12980) | inactive: -0.158
7 | MAP3K2 (UniProt Q9Y2U5) | inactive: -0.018
8 | MAP3K8 (UniProt P41279) | inactive: -0.23
9 | MAP4K3 (UniProt Q8IVH8) | inactive: -0.114
10 | LTBP1 isoform 4 (UniProt Q14766) | inactive: -0.157
11 | LTO1 (UniProt Q8WV07) | inactive: -0.191

compound: C[C@@H](Oc1cc(-c2cnn(C3CCNCC3)c2)cnc1N)c1c(Cl)ccc(F)c1Cl [crizotinib]; experiment: as above
How it was run: as §1

Row | Target | log2 fold change
12 | MARF1 (UniProt Q9Y4F3) | inactive: -0.021
13 | MAML1 (UniProt Q92585) | inactive: 0.088
14 | MACF1, A0A0A6YYJ5 | inactive: -0.019
15 | MAGEA6 (UniProt P43360) | inactive: -0.148
16 | LYN isoform 2 (UniProt P07948) | inactive: 0.049
17 | LYRM1 (UniProt O43325) | inactive: -0.281
18 | MAP3K1 (UniProt Q13233) | inactive: 0.163
19 | LYL1 (UniProt P12980) | inactive: -0.019
20 | LTBP4 isoform 2 (UniProt Q8N2S1) | inactive: 0.195
21 | MAP3K2 (UniProt Q9Y2U5) | inactive: -0.132
22 | MAPK15 (UniProt Q8TD08) | inactive: -0.294
23 | MAGEA3 (UniProt P43357) | inactive: -0.121
24 | MAP3K4 isoform 2 (UniProt Q9Y6R4) | inactive: 0.044
25 | MAPKAP1 (UniProt Q9BPZ7) | inactive: 0.02
26 | MAGEA12 (UniProt P43365) | inactive: -0.078
27 | LTO1 (UniProt Q8WV07) | inactive: 0.053

compound: C[C@H](C1=CC=C(C=C1)C(=O)NC2=C3C=CNC3=NC=C2)N; experiment: as above
How it was run: as §1

Row | Target | log2 fold change
28 | MAPK12 (UniProt P53778) | active: 0.868
29 | MARCHF3 (UniProt Q86UD3) | inactive: -0.164
30 | MARF1 (UniProt Q9Y4F3) | inactive: 0.035
31 | MAML1 (UniProt Q92585) | inactive: -0.005
32 | MACF1, A0A0A6YYJ5 | inactive: -0.042
33 | LYN isoform 2 (UniProt P07948) | inactive: 0.026
34 | LYRM1 (UniProt O43325) | inactive: -0.3
35 | MAP3K1 (UniProt Q13233) | inactive: -0.07
36 | MARVELD1 (UniProt Q9BSK0) | inactive: -0.052
37 | LYL1 (UniProt P12980) | inactive: -0.205
38 | MAP3K2 (UniProt Q9Y2U5) | inactive: -0.099
39 | MACF1, A0A5F9ZGX0 | inactive: 0.044
40 | MAGED4 isoform 4 (UniProt Q96JG8) | inactive: -0.201
41 | MAP3K8 (UniProt P41279) | inactive: -0.131
42 | LTBP1 isoform 4 (UniProt Q14766) | inactive: -0.091
43 | MAGEA12 (UniProt P43365) | inactive: 0.046
44 | LTO1 (UniProt Q8WV07) | inactive: 0.052
45 | MAGEB10 (UniProt Q96LZ2) | inactive: 0.233

compound: C[C@H](Nc1ncnc2nc[nH]c12)c1cc2cccc(Cl)c2c(=O)n1-c1ccccc1 [duvelisib]; experiment: as above
How it was run: as §1

Row | Target | log2 fold change
46 | LY6D (UniProt Q14210) | inactive: -0.51
47 | MAGEF1 (UniProt Q9HAY2) | inactive: 0.039
48 | MAPK12 (UniProt P53778) | inactive: -0.061
49 | MAP3K3 isoform 2 (UniProt Q99759) | inactive: 0.001
50 | MARF1 (UniProt Q9Y4F3) | inactive: -0.002
51 | MAML1 (UniProt Q92585) | inactive: 0.123
52 | MARCHF7 (UniProt Q9H992) | inactive: -0.216
53 | MACF1, A0A0A6YYJ5 | inactive: 0.014
54 | LYN isoform 2 (UniProt P07948) | inactive: -0.357
55 | LYRM1 (UniProt O43325) | inactive: -0.036
56 | MARVELD1 (UniProt Q9BSK0) | inactive: 0.072
57 | MAGI1 (UniProt H7C4S7) | inactive: 0.041
58 | MAOA (UniProt P21397) | inactive: 0.182
59 | MAP3K2 (UniProt Q9Y2U5) | inactive: 0.115
60 | MAPK15 (UniProt Q8TD08) | inactive: 0.129
61 | MAP3K8 (UniProt P41279) | inactive: 0.013
62 | MAPKAP1 (UniProt Q9BPZ7) | inactive: -0.192
63 | MAP4K3 (UniProt Q8IVH8) | inactive: 0.183
64 | LTBP1 isoform 4 (UniProt Q14766) | inactive: -0.306
65 | LTO1 (UniProt Q8WV07) | inactive: 0.008
66 | MAGEA2 (UniProt P43356) | inactive: 0.065

compound: Cc1cc(Nc2cc(CN3CCOCC3)c3nc(C)c(Cc4ccc(Cl)cc4F)n3n2)n[nH]1 [gandotinib]; experiment: as above
How it was run: as §1

Row | Target | log2 fold change
67 | MAPK12 (UniProt P53778) | inactive: -0.15
68 | MARCHF3 (UniProt Q86UD3) | inactive: 0.071
69 | MARF1 (UniProt Q9Y4F3) | inactive: -0.1
70 | MAML1 (UniProt Q92585) | inactive: -0.031
71 | MACF1, A0A0A6YYJ5 | inactive: -0.01
72 | LYN isoform 2 (UniProt P07948) | active: 0.891
73 | LYRM1 (UniProt O43325) | inactive: -0.104
74 | MAP3K1 (UniProt Q13233) | inactive: 0.204
75 | MARVELD1 (UniProt Q9BSK0) | inactive: 0.273
76 | LYL1 (UniProt P12980) | inactive: 0.079
77 | MAP3K2 (UniProt Q9Y2U5) | inactive: 0.146
78 | MACF1, A0A5F9ZGX0 | inactive: -0.08
79 | MAGED4 isoform 4 (UniProt Q96JG8) | inactive: 0.313
80 | MAP3K8 (UniProt P41279) | inactive: 0.13
81 | LTBP1 isoform 4 (UniProt Q14766) | inactive: 0.106
82 | MAGEA12 (UniProt P43365) | inactive: -0.007
83 | LTO1 (UniProt Q8WV07) | inactive: -0.06
84 | MAGEB10 (UniProt Q96LZ2) | inactive: 0.009
